About 13,000 (3.2%) of roughly 400,000 compounds were called active. Inconclusive means that the source gave no clear call. Such entries were picked first, then a sample of the others. Calls follow the shape of the dose curve; as a rule, active = well fitted cell-killing curve with a large enough effect; inconclusive = small, poorly fitted or top-dose-only effect, or effect the other way; inactive = flat fitted curve, though single readings scatter. Potencies beside an inconclusive call are fits to weak or partial responses and may not hold up.
experiment: qHTS assay for MDR1-selective chemotherapeutics: Primary screen using the drug-selected MDR subline cells KB-V1; details: KB-V1 MDR cells viability, CellTiter-Glo, 72 h; series mostly up to 46.1 µM; also: nearly all actives have a fitted effect of over 60% in size
Outline: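 qHTS viability screen in drug-selected KB-V1 MDR cells: 72 h compound treatment at 37 degrees C, ATP luminescence end point.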
Potency is read from the fitted curve at half-maximal effect.

SMILES | Potency
O=C(N/N=C/c1cccc2nccnc12)c1ccncc1 | inactive
NC(=O)c1cc(Br)cc2c3c([nH]c12)CCCC3 | active: 16.4 µM
COc1ccc(-c2[nH]c(-c3ccc4c(c3)OCO4)nc2-c2ccccc2)cc1 | inconclusive: 29.1 µM [cytotoxic, single point]
CCOC(=O)Cc1ccc(Nc2nc3cc(-c4ccccc4C)sc3c(=O)n2C)cc1 | inactive
COc1ccc(N(CC(=O)NC2CCCC2)C(=O)Cn2nnc(-c3ccc(C)cc3)n2)cc1OC | active: 13 µM
COC(=O)c1ccc(C)c(NC(=O)CSc2sc3c(O)cc(=O)[nH]c3c2C#N)c1 | inconclusive: 25.9 µM [rising, single point]
CCOC(=O)C1(Cc2ccccc2C#N)CCCCC1=O (configuration not stated) | inactive
Cc1ccc(C)c(NC(=O)Cn2c(=O)n(Cc3ccc4c(c3)OCO4)c(=O)c3ccccc32)c1 | inactive
CCCSc1nnc2n(-c3cccc(C)c3)c(=O)c3c4c(sc3n12)CCCC4 | active: 23.1 µM
CCOC(=O)N1CCC(NC(=O)c2ccc(CS(=O)c3cccc(C)c3)o2)CC1 (configuration not stated) | inactive
c1ccc(NC2=NCCN2CC2CCCCCC2)cc1 | inconclusive: 3.66 µM [rising, full curve]
C[C@H]1CN=C(N(C)C)N1CCc1ccc(F)cc1 | inconclusive: 29.1 µM [rising, single point]
CC(=O)c1ccc2c(c1)N(CCCN1CCC(CCO)CC1)c1ccccc1S2 | inconclusive: 16.4 µM [cytotoxic, single point]
C=CCN1C(=O)/C(=C2/Sc3ccc(OC)cc3N2C)SC1=Nc1ccccc1 | inactive
Cn1c(Oc2ccccc2)nc2c1c(=O)n(Cc1ccc(Cl)cc1Cl)c(=O)n2C | inactive
COc1ccc(N2CC(C(=O)N[C@@H](C)C(=O)NC3CCCC3)CC2=O)cc1 (some centres not stated) | inconclusive: 29.1 µM [rising, single point]
CC[C@]12c3[nH]c4cc(-c5ccco5)ccc4c3CCN1C(=O)[C@@H](CC(=O)NCc1cccc(C(F)(F)F)c1)C[C@@H]2C(=O)N1CCN(C(=O)C2CC2)CC1 | inactive
COc1cc(OC)c(CN2CCN(c3ccc(F)cc3)CC2)cc1Br | active: 16.4 µM
O=C(C[C@@H]1C/C=C\CC[C@@H](Cc2ccc(F)cc2)C(=O)OC[C@@H](Cc2ccccc2)NC1=O)NCCO | inactive
C=CCc1c(C)nc(SC)nc1Nc1ccccc1 | inconclusive: 23.1 µM [cytotoxic, single point]
COc1ccc(CCN(C)C(=O)C23CC4CC(CC(Cl)(C4)C2)C3)cc1OC | inconclusive: 23.1 µM [cytotoxic, partial curve]
CCCCCCN1C=CC(=C/C=C(\C#N)C(=O)OCC)C=C1 | active: 8.2 µM
CC(C)CCNc1ncnc2c1cnn2-c1cccc(Cl)c1 | inconclusive: 29.1 µM [cytotoxic, single point]
C=C(C)Cn1c(-c2ccccc2)nc2ccccc21 | inconclusive: 25.9 µM [cytotoxic, single point]

Single values from the list:
`CC(C)CCNc1ncnc2c1cnn2-c1cccc(Cl)c1` – Potency: inconclusive: 29.1 µM [cytotoxic, single point]
`CC[C@]12c3[nH]c4cc(-c5ccco5)ccc4c3CCN1C(=O)[C@@H](CC(=O)NCc1cccc(C(F)(F)F)c1)C[C@@H]2C(=O)N1CCN(C(=O)C2CC2)CC1` – Potency: inactive

Carrying on.

SMILES | Potency
O=C(NC1CCCC1)c1cccc2c1C(=O)c1ccc(Cl)cc1S2(=O)=O | inconclusive: 7.31 µM [rising, partial curve]
O=C(c1ccccc1NS(=O)(=O)c1ccc(Br)s1)N1CCCC1 | inconclusive: 8.2 µM [cytotoxic, partial curve, poor fit]
O=C(CCc1cn(Cc2ccc(F)cc2)c2ccccc12)N1CCOCC1 | inconclusive: 16.4 µM [cytotoxic, single point]
CC(=O)Nc1ccc(S(=O)(=O)NCCC(=O)OCC(=O)c2cc(C)ccc2C)cc1 | inconclusive: 29.1 µM [rising, single point]
CN(C)CCC(=O)C(Cc1ccccc1)c1ccccc1 (configuration not stated) | inconclusive: 0.517 µM [cytotoxic, full curve, poor fit]
O=C1NCCN1Cc1ccccc1 | inconclusive: 35.5 µM [rising, single point]
FC(F)C(F)(F)c1cc(-c2ccc(Cl)cc2)n[nH]1 | inconclusive: 29.1 µM [cytotoxic, single point]
Cc1nn(-c2ccccc2)c2c1/C(=N/O)CC(C)(C)C2 | active: 16.4 µM
O=C(CN1C(=O)NC2(CCc3ccccc32)C1=O)NCc1ccc(F)cc1 (configuration not stated) | inactive
CC(C)(C)C(=O)Nc1cc2c3c(c1)CCN3C(=O)CC2 | inconclusive: 29.1 µM [rising, single point]
COCCNC(=S)N/N=C(\C)c1ccccc1OC | inactive
CC(=O)c1cccc(NC(=O)N2CCC(CN3CCCCC3)CC2)c1 | inactive
Cn1c(NC(=O)/C=C/c2ccco2)cc(=O)n(C)c1=O | inconclusive: 29.1 µM [rising, single point]
CC(C)c1ccc(NC(=O)Cn2c(=O)n(Cc3nc(-c4ccccc4)no3)c(=O)c3cc4c(cc32)OCO4)cc1 | inactive
CCOc1ccccc1NC(=O)CN1C(=O)C2(SCC(=O)N2c2ccc(C)cc2)c2ccccc21 (configuration not stated) | inactive
CCOc1ccc2c(c1)c(=O)c(C(=O)c1ccc(C)cc1)cn2Cc1ccccc1OC | inconclusive: 11.6 µM [cytotoxic, partial curve, poor fit]
CNc1nc(-c2c[nH]c3ccccc23)cs1 | inactive
CN(CC(=O)Nc1ccc(Cl)c(C(F)(F)F)c1)CC(=O)NC1CCCCC1 | inactive
CC(=O)Nc1ccc(C(=O)N2CCCCC2c2cc(C(=O)Nc3cccc4c3CCCC4)no2)cc1 (configuration not stated) | inconclusive: 29.1 µM [cytotoxic, single point]
C[C@@H](c1ccccc1)N1C[C@H](COCc2ccccc2)Oc2cc(N3CCC[C@@H]3CO)ccc2S1(=O)=O | inactive
CC(C)C(NC(=O)CCNC(=O)c1ccc([N+](=O)[O-])cc1)c1nc2ccccc2[nH]1 (configuration not stated) | inconclusive: 20.6 µM [rising, partial curve, poor fit]
CCCCCCCCN1C(=O)[C@H](CC(=O)NCc2ccc(OC)c(OC)c2)C[C@@]2(C(=O)OCC)CCC=C12 | inconclusive: 16.4 µM [cytotoxic, partial curve]
COc1cccc(CN(CC(=O)NCc2ccccc2)S(=O)(=O)CCl)c1 | inconclusive: 23.1 µM [cytotoxic, single point]

From PubChem BioAssay AID1347076 (National Center for Advancing Translational Sciences (NCATS), 2019)
